No constants are given. Whether binding was seen depends on the method and setting. In cells and extracts the contact can be indirect. Some binding calls cover weakened binding; strength is not graded here.

Chains of the proteins cited; added tags and fusions are not shown. Lines headed by an entry give the natural chain unless they say otherwise; changes in a name come on top. A line that says so, or that is headed by a name, gives the form on record, which may keep a tag or linker.
HBH-ΔF508-CFTR-3HA (P13569, form named): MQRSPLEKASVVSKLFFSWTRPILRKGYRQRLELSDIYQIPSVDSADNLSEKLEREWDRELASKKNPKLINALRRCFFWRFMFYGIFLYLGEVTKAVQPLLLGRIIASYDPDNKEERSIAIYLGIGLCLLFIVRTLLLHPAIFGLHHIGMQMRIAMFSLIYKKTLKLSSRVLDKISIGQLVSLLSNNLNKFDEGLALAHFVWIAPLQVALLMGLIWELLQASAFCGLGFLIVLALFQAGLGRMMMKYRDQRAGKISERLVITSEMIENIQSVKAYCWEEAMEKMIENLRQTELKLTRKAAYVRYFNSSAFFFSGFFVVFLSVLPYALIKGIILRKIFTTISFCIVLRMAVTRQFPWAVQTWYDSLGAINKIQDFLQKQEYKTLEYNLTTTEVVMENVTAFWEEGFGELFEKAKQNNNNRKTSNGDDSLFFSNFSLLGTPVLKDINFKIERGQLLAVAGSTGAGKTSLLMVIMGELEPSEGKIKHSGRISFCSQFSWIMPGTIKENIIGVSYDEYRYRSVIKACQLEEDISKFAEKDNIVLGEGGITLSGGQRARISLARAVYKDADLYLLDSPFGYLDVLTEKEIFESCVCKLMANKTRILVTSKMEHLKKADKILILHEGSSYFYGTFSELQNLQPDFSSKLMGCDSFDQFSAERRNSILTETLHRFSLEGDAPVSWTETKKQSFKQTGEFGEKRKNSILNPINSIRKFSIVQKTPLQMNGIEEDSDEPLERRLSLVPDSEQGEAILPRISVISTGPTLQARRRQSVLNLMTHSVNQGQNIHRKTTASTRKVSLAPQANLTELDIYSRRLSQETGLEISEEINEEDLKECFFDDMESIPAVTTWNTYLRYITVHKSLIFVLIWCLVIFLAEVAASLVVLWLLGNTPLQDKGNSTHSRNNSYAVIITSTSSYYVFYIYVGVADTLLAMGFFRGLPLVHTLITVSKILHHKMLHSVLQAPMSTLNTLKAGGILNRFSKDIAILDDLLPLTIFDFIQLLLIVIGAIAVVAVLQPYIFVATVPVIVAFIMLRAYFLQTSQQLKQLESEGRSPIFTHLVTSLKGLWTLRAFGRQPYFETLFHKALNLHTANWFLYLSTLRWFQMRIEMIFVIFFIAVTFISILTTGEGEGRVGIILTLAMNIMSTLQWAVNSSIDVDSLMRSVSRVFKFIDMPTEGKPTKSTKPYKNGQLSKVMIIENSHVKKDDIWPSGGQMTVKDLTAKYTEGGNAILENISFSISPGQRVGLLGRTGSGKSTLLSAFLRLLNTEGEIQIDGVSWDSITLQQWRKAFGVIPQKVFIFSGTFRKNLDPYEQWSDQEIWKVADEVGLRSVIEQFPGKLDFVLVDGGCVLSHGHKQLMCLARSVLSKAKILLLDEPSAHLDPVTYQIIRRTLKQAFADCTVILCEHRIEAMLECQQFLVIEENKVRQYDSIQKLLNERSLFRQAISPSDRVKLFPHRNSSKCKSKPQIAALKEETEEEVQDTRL
UniProt Q9UKV5: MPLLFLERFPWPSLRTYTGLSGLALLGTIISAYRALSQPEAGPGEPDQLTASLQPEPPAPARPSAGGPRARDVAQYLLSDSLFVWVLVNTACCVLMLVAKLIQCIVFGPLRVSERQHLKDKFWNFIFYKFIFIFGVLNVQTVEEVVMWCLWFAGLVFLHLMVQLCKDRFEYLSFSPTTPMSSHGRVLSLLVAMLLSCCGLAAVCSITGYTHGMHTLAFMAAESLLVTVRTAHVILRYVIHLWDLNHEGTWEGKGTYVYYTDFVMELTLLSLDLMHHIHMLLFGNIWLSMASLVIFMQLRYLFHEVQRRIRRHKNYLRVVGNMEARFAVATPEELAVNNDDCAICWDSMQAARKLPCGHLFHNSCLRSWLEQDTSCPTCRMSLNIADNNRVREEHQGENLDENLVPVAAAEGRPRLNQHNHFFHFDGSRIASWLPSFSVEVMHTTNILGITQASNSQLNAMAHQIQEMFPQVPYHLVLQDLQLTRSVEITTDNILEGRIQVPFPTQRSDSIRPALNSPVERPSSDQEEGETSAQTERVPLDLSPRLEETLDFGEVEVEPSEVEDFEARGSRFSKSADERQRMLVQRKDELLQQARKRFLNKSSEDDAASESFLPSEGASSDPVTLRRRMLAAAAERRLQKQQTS
UniProt Q86TM6: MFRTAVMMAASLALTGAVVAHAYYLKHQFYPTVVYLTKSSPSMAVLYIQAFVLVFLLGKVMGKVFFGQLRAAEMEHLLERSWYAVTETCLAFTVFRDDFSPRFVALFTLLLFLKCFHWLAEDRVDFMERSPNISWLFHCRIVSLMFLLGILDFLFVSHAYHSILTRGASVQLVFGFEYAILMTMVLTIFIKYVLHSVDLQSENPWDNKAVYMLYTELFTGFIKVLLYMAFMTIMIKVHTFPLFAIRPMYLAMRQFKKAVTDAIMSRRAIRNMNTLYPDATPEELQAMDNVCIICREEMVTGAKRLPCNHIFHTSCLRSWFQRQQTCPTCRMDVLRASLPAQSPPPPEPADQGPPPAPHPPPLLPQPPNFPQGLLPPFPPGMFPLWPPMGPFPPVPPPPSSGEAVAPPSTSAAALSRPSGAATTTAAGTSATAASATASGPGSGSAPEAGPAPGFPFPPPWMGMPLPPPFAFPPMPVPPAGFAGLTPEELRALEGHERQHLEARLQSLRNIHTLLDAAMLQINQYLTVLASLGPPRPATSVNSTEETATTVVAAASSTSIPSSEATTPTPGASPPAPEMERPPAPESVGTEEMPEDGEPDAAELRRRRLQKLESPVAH

The values that follow come from paper doi:10.1101/2025.05.07.652780.

This assay deals with HBH-ΔF508-CFTR-3HA (UniProt P13569). Kind of assay: pull-down.

As for “AMFR (Gp78), endogenous (from UniProt Q9UKV5 1-643) (enzyme)”, the binding entry was “binds”.
With “Synoviolin 1 (SYVN1), endogenous (from UniProt Q86TM6 1-617) (enzyme)”, the binding entry is recorded as “binds”.
